In article PMC8466908:
Results are given in words; binding and its absence hold for the method and conditions named. Some binding calls cover weakened binding; strength is not graded here.

By UniProt entry, the sequences of proteins in these tests, tags left out. Residues count along the entry.
UniProt P31040, residues 43-664: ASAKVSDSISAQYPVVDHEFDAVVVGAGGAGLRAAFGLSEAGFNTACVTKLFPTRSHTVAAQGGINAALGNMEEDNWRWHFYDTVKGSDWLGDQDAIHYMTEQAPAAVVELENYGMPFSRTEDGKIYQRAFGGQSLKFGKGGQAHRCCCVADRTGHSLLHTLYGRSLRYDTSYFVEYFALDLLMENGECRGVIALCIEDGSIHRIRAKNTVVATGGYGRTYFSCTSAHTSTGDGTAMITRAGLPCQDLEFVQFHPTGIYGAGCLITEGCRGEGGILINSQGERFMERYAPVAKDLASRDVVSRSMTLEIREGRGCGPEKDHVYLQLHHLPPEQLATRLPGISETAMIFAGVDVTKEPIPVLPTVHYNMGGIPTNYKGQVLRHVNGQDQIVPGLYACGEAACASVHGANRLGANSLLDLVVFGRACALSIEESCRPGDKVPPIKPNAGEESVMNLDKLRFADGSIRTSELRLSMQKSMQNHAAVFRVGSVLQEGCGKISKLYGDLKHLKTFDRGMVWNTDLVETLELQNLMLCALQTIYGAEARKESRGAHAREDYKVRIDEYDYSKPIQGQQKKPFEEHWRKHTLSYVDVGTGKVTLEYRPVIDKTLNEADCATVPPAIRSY

T1: Succinate dehydrogenase subunit C (human (endogenous in HEK293)) (UniProt Q99643)
T1 sequence: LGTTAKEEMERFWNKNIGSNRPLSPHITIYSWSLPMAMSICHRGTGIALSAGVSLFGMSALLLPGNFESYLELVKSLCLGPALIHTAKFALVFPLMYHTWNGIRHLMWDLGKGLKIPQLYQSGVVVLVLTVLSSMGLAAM


Key:
[1] = target: Succinate dehydrogenase subunit A (human (endogenous in HEK293 and HepG2)) (UniProt P31040); assay: native gel or EMSA; two-dimensional BN-PAGE/SDS-PAGE and immunoblot of mitochondrial lysates of parental and CAMKK2-/- HEK293 cells; lysis buffer pH 7 with 1.5% n-dodecyl beta-D-maltoside, 4-15% gradient native gel run at 4 °C; co-migration (vertical alignment) read as association
[2] = target: T1, Succinate dehydrogenase subunit C (human (endogenous in HEK293)); assay: as above
[3] = target: Succinate dehydrogenase subunit A (human (endogenous in HEK293 and HepG2)) (UniProt P31040); assay: native gel or EMSA; two-dimensional BN-PAGE/SDS-PAGE and immunoblot of mitochondrial lysates of parental and CAMKK2-/- HepG2 cells; lysis buffer pH 7 with 1.5% n-dodecyl beta-D-maltoside, 4-15% gradient native gel run at 4 °C; co-migration (vertical alignment) read as association

| Binder | binding [1] | binding [2] | binding [3] |
| --- | --- | --- | --- |
| Succinate Dehydrogenase Complex Iron-Sulfur Subunit B (protein, UniProt P21912 29-280) AQTAAATAPRIKKFAIYRWDPDKAGDKPHMQTYEVDLNKCGPMVLDALIKIKNEVDSTLTFRRSCREGICGSCAMNINGGNTLACTRRIDTNLNKVSKIYPLPHMYVIKDLVPDLSNFYAQYKSIEPYLKKKDESQEGKQQYLQSIEEREKLDGLYECILCACCSTSCPSYWWNGDKYLGPAVLMQAYRWMIDSRDDFTEERLAKLQDPFSLYRCHTIMNCTRTCPKGLNPGKAIAEIKKMMATYKEKKASV | binds | binds | binds |
| Succinate dehydrogenase subunit C (protein, UniProt Q99643 30-169) LGTTAKEEMERFWNKNIGSNRPLSPHITIYSWSLPMAMSICHRGTGIALSAGVSLFGMSALLLPGNFESYLELVKSLCLGPALIHTAKFALVFPLMYHTWNGIRHLMWDLGKGLKIPQLYQSGVVVLVLTVLSSMGLAAM | binds | – | – |
